Measurements published in the supplement of paper PMC12578635.
The list shows a part of the results. Rule as the data show it: active = 150% or more and inactive = the rest. Most values come without repeats; read them as rough.

Tested on: Staphylococcus aureus JE2-lux inside RAW 264.7 macrophages
Assay: intracellular bacterial bioluminescence relative to DMSO vehicle; higher = higher intracellular bacterial metabolic activity
Details: 10 µM; treatment time 4 h; gentamicin 50 µg/ml

Intracellular bacterial bioluminescence, inactive:
CCOc1ccc(-c2csc(/C(C#N)=C\c3ccc(O)c(OCC)c3)n2)cc1 104%, CC(C(=O)Nc1ncc([N+](=O)[O-])s1)N1C(=O)c2ccccc2S1(=O)=O (configuration not stated) 93%, CC(C)c1ccc(/C=C(\C#N)C(=O)Nc2cccc(Br)c2)cc1 111%, CSc1nc2cc(NC(=S)NC(=O)c3ccccc3)ccc2s1 72.3%, Cn1c2ccccc2n2c(=O)n(CC(=O)N3CCOCC3)nc12 96.7%, O=C(CS(=O)(=O)Cc1ccccc1)Nc1nc2ccc(Br)cc2s1 25.4%, Cc1nn2c(NCc3ccccn3)cc(C(C)(C)C)nc2c1-c1ccc(F)cc1 74.3%, COc1ccccc1NC(=O)CSc1nnc2sc3ccccc3n12 99.8%, COC(=O)c1ccccc1NC(=O)c1cc2cccnc2n(C)c1=O 94.9%, CCOc1ccc(CCNc2nccn(-c3ccc4c(c3)OCO4)c2=O)cc1OCC 64.6%, O=C1CCCN2N=C(SCC(=O)NCc3ccco3)SC2=N1 95.4%, Cc1cc2cc3c(N)c(C(=O)NCc4ccco4)sc3nc2cc1C 90.7%, O=C(CCn1nnc2ccccc21)N/N=C/c1cccc(O)c1 100%, O=C(Cn1cnc2c(cnn2-c2ccc(Cl)cc2)c1=O)N1CCc2ccccc21 93.7%, CCCc1ccc(C(=O)CC2(O)C(=O)Nc3ccc(C)cc32)cc1 (configuration not stated) 107%, CCCCc1ccc(NC(=O)CSc2nc(=O)n3ccccc3n2)cc1 27%, Cc1[nH]c2c(C(=O)NC(c3ccccc3)c3cccnc3)cccc2c1C (configuration not stated) 74.7%, CCOc1ccccc1NC(=O)c1c[nH]c(=O)n(-c2ccc(F)cc2)c1=O 82.3%, O=C(Nc1ncc(Cc2ccc(F)cc2)s1)c1ccc2nccnc2c1 139%, Cc1cc2c(cc1NCc1cc3c(C)nn(-c4ccccc4)c3[nH]c1=O)OCCO2 98.8%, O=C(Nc1ccccc1Cl)c1cccnc1-c1ccsc1 101%, O=C(O)CCCN1C(=O)c2cccc([N+](=O)[O-])c2C1=O 110%, COc1ccccc1NS(=O)(=O)c1cc(C)c2[nH]c(=O)cc(C)c2c1 125%, NC(=O)C1(N2CCCCC2)CCN(c2ccc(NS(=O)(=O)c3ccccc3)c(C(=O)O)c2)CC1 102%, COc1cccc2cc(C(=O)Nc3ccc(F)cc3)/c(=N/NS(=O)(=O)c3ccccc3)oc12 73.1%, COc1ccc(C(=O)NCC(c2cccs2)N2CCc3ccccc3C2)cc1 (configuration not stated) 105%, O=C(Nc1ccc2c(c1)OCCO2)C(=O)Nc1cccc2cccnc12 96.9%, CCCOC(=O)c1sc2nc3c(c(-c4ccco4)c2c1N)CCCC3 111%, CSc1cccc2sc(Nc3cccc(C)c3)nc12 122%, Cc1noc2ncnc(NCCN3CCCCC3C)c12 (configuration not stated) 116%, O=C1c2ccccc2-c2nn(C(=O)C3CCN(S(=O)(=O)c4cccs4)CC3)c3cccc1c23 112%, CC(=O)Nc1ccc(NC(=O)Cn2c(-c3nnc(C)o3)cc3ccccc32)cc1 123%, O=C(NCCS(=O)(=O)N1CCC2(CC1)OCCO2)c1ccc2c(c1)OCO2 132%, Clc1ccc(-n2ncc3c(Cl)ncnc32)cc1 120%, CCc1cc2ccc(C)c(C)c2nc1SCC(=O)NNC(=O)c1ccco1 71.3%, NC(=O)N/N=C/c1sc(=O)n(Cc2cccc(C(=O)O)c2)c1Cl 108%, O=C1C=C(Nc2ccccc2)C(=O)N1c1ccccc1Cl 125%, COc1ccc(CCNC(=O)Cc2csc3nc(-c4ccc(F)cc4)cn23)cc1OC 79.3%, O=C(Nc1cccc2c1CCCC2)c1cc(-c2ccccn2)[nH]n1 76.6%, CCn1c(SCc2nc(-c3cccc(Cl)c3)no2)nc2cc3c(cc2c1=O)OCO3 104%, COc1ccc(CNC(=O)c2cc(-c3ccccc3F)nc3[nH]nc(-c4cccc(OC)c4)c23)cc1 92.5%, Cc1onc(-c2ccccc2Cl)c1C(=O)Oc1cc(N)n(S(=O)(=O)c2ccc(F)cc2)n1 90.9%, CC(C)c1ccc(Cc2cnc(N3C(=N)SCC3=O)s2)cc1 63.8%, O=C(CSc1nc(=O)n(CCO)c2c1CCCC2)Nc1ccccc1[N+](=O)[O-] 113%, O=C(CN1C(=O)c2ccccc2C1=O)Nc1ccc2c(c1)C(=O)NC2=O 2.55%, CCc1cccc(NC(=O)c2c(-c3ccccc3)nnc3ccccc23)c1 98.5%, CCS(=O)(=O)c1ccc(C(=O)/N=c2/sc3c(C)ccc(OC)c3n2C)cc1 122%, Cc1nn2c(C)c(C(=O)NCc3ccc(F)cc3)cnc2c1-c1ccccc1 119%, O=C(O)CCc1nc(N2CCCCC2)c2c(-c3ccc(F)cc3)noc2n1 99.9%, Cc1nc2ccc(C(=O)NC(c3ccncc3)c3ccccc3C)cc2s1 (configuration not stated) 118%, O=c1[nH]cncc1-c1nc(-c2ccc(Cl)cc2)no1 76.7%, CCOc1ccc(CNC(=O)CCn2cnc3onc(-c4ccccc4)c3c2=O)cc1 62.6%, Cn1c(SCC(=O)N/N=C/c2ccc(Cl)cc2)nc2ccccc21 83%, O=C(NCCc1ccccc1)c1cccnc1Nc1ccc2c(c1)OCCO2 68.3%, COc1cc(NS(=O)(=O)c2ccc(NC(=O)Nc3ccccc3)cc2)nc(OC)n1 106%, O=C(NCc1ccc2[nH]c3c(c2c1)CCCC3)C(=O)c1c[nH]c2ccccc12 89.3%, COc1ccc(NC(=O)Cn2c(=O)n(-c3ccccc3)c(=O)c3oc4ccccc4c32)cc1OC 116%, Cc1cc(=O)n2nc(-c3ccc(Cl)cc3)nc2n1CC(=O)Nc1ccccc1F 107%, CCOC(=O)c1ccc(Nc2[nH]c(=O)c3ccccc3c2C(=O)c2ccncc2)cc1 113%, NC(=O)CSC1=NS(=O)(=O)c2cc(Cl)ccc2N1 149%, Cc1cc(NC(=O)C2CCN(S(=O)(=O)c3cc(-c4noc(C)n4)sc3C)CC2)c2ccccc2n1 109%, CCCNC(=O)NCC(c1cccnc1)c1c[nH]c2ccccc12 (configuration not stated) 101%, CCNc1nc(Nc2ccc(Cl)cc2)c2cnn(C)c2n1 63.4%, CCCCC1CCC(C(=O)Nc2cc(C)nn2-c2ncnc3c2cnn3-c2ccc(Cl)cc2)CC1 (configuration not stated) 147%, CC1CCc2c(sc(NC(=O)C(C)Oc3cccc(Br)c3)c2C#N)C1 (configuration not stated) 101%, CCCc1cc(C(=O)Nc2ccc3c(c2)CC(C)N3C(C)=O)[nH]n1 (configuration not stated) 85.4%, O=C(COc1ccc2ccccc2c1)Nc1nnc2n1CCS2 122%, N#CC1=C(N)OC2=C(C(=O)CC(c3ccccc3)C2)C1C1CCCCC1 (configuration not stated) 74.7%, COc1ccc(Cn2ccc3nc(C)c(C(=O)NCc4ccc(Cl)cc4)cc3c2=O)cc1 104%, Nn1c(SCC(=O)N2CCCCCC2)nncc1=O 116%, CC(=O)Nc1cccc(NC(=O)CSc2nc(=O)n3cc(Cl)ccc3n2)c1 89.2%, CC1CCCCN1S(=O)(=O)c1ccc(C(=O)Nc2ccccc2Oc2ccccc2)cc1 (configuration not stated) 131%, COc1ccc2cc(CCNC(=O)c3ccc([N+](=O)[O-])cc3)c(=O)[nH]c2c1 67.9%, CCOC(=O)c1c(NC(=O)CSc2ccccc2N)sc(C(C)=O)c1C 84.6%, C=CCNC(=O)c1ccc(COc2ccccc2Cl)o1 65.6%, C=CCn1c(SCC(=O)NCc2cccnc2)nc2sc3c(c2c1=O)CCCC3 51.5%, CC(=O)NC(=O)c1cc2cc(Cl)ccc2o/c1=N\c1cccc2ccccc12 97.8%, CCS(=O)(=O)c1ccccc1C(=O)Nc1ccc(C)cc1C(=O)c1ccccc1 124%, Cc1c(-c2ccccc2)n[nH]c1C(=O)Nc1cccc(C(=O)N2CCCCC2)c1 79.2%, COc1ccc(/C(C)=N/N2CC(=O)Nc3ccccc32)cc1 102%, COc1ccccc1CNC(=O)CSc1nnc2c(n1)[nH]c1ccc(F)cc12 95.6%, CCOCCCNC(=O)c1ncoc1-c1ccc(F)cc1 79.4%, O=C(O)CCCNc1ncnc2c1oc1ccccc12 90.2%, O=C(CSc1ncc(S(=O)(=O)c2ccc(Cl)cc2)c(=O)[nH]1)Nc1ccc2c(c1)OCCO2 82.8%, NS(=O)(=O)c1ccc(NC2=NC(=O)C(CC(=O)O)S2)cc1 (configuration not stated) 115%, C#CCOc1cccc(C2CC(=O)Nc3c2cnn3-c2nc3ccccc3s2)c1 (configuration not stated) 101%, O=C(CSc1ncnc2c1sc1nc3ccccc3cc12)Nc1ccc2c(c1)OCO2 43.6%, O=C1C2ON(c3ccc(Cl)cc3)C(c3ccc(F)cc3)C2C(=O)N1c1ccc([N+](=O)[O-])cc1 (configuration not stated) 129%, O=C(C1=C(O)C(=O)N(c2nncs2)C1c1ccc(F)cc1)c1cccs1 (configuration not stated) 83.4%, Cc1nc(SCC(=O)Nc2cccc(F)c2)[nH]c(=O)c1C 101%, Cc1sc2nc(SCC(=O)Nc3ccc(S(N)(=O)=O)cc3)[nH]c(=O)c2c1C 78%, CC(=O)C1=C(C)NC(SCC(=O)Nc2nccs2)=C(C#N)C1c1ccc(Cl)cc1 (configuration not stated) 100%
